Experimental findings from article PMC11633972 are described below.

By UniProt entry, the sequences of proteins in these tests, tags left out.
UniProt P69596: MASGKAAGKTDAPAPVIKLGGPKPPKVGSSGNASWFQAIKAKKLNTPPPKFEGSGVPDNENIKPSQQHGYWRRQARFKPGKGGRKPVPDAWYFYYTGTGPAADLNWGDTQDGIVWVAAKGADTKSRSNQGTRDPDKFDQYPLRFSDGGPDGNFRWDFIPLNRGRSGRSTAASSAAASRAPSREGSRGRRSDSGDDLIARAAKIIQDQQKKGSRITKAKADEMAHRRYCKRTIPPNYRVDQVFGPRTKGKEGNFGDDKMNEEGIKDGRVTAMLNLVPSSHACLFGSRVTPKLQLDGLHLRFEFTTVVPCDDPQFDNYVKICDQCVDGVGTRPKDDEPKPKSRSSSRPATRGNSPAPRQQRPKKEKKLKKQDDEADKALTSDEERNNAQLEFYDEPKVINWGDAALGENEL

Results are given in words; binding and its absence hold for the method and conditions named. In cells and extracts the contact can be indirect. Here binding means that the protein was enriched with, or labelled near, the bait; the list need not be complete.

The target of this assay is Flag-tagged IBV N protein (expressed in HEK-293T cells) (infectious bronchitis virus (IBV), Beaudette strain) (UniProt P69596). As to the kind of experiment: affinity purification with mass spectrometry.

B1: RAE1 (mRNA export factor) (protein, UniProt P78406 1-368)
chain: MSLFGTTSGFGTSGTSMFGSATTDNHNPMKDIEVTSSPDDSIGCLSFSPPTLPGNFLIAGSWANDVRCWEVQDSGQTIPKAQQMHTGPVLDVCWSDDGSKVFTASCDKTAKMWDLSSNQAIQIAQHDAPVKTIHWIKAPNYSCVMTGSWDKTLKFWDTRSSNPMMVLQLPERCYCADVIYPMAVVATAERGLIVYQLENQPSEFRRIESPLKHQHRCVAIFKDKQNKPTGFALGSIEGRVAIHYINPPNPAKDNFTFKCHRSNGTNTSAPQDIYAVNGIAFHPVHGTLATVGSDGRFSFWDKDARTKLKTSEQLDQPISACCFNHNGNIFAYASSYDWSKGHEFYNPQKKNYIFLRNAAEELKPRNKK
Consider B1, for which the binding entry is “binds”.
